Laboratory results reported in paper PMC13294203.
Results are given in words; binding and its absence hold for the method and conditions named. Some results given as binding are weak or reduced against the parent protein; the word gives no strength.

Target: human potassium-chloride cotransporter KCC4 (KCC4a) (human) (UniProt Q9Y666)
Assay: cryo-EM structure; single-particle cryo-EM of purified KCC4 in 0.02% GDN, 30 mmol/L Tris pH 8.0, in six ion conditions (150 mmol/L KCl, LiCl, NaCl, KNO3, NaNO3, or 140 mmol/L NaCl + 10 mmol/L RbCl); C2 symmetry applied; 2.38-2.58 Å; both purified

binding: binds
B1: human potassium-chloride cotransporter KCC4 (KCC4a) (protein, UniProt Q9Y666 1-1083)
chain: MPTNFTVVPVEAHADGGGDETAERTEAPGTPEGPEPERPSPGDGNPRENSPFLNNVEVEQESFFEGKNMALFEEEMDSNPMVSSLLNKLANYTNLSQGVVEHEEDEESRRREAKAPRMGTFIGVYLPCLQNILGVILFLRLTWIVGVAGVLESFLIVAMCCTCTMLTAISMSAIATNGVVPAGGSYYMISRSLGPEFGGAVGLCFYLGTTFAGAMYILGTIEIFLTYISPGAAIFQAEAAGGEAAAMLHNMRVYGTCTLVLMALVVFVGVKYVNKLALVFLACVVLSILAIYAGVIKSAFDPPDIPVCLLGNRTLSRRSFDACVKAYGIHNNSATSALWGLFCNGSQPSAACDEYFIQNNVTEIQGIPGAASGVFLENLWSTYAHAGAFVEKKGVPSVPVAEESRASALPYVLTDIAASFTLLVGIYFPSVTGIMAGSNRSGDLKDAQKSIPTGTILAIVTTSFIYLSCIVLFGACIEGVVLRDKFGEALQGNLVIGMLAWPSPWVIVIGSFFSTCGAGLQSLTGAPRLLQAIARDGIVPFLQVFGHGKANGEPTWALLLTVLICETGILIASLDSVAPILSMFFLMCYLFVNLACAVQTLLRTPNWRPRFKFYHWTLSFLGMSLCLALMFICSWYYALSAMLIAGCIYKYIEYRGAEKEWGDGIRGLSLNAARYALLRVEHGPPHTKNWRPQVLVMLNLDAEQAVKHPRLLSFTSQLKAGKGLTIVGSVLEGTYLDKHMEAQRAEENIRSLMSTEKTKGFCQLVVSSSLRDGMSHLIQSAGLGGLKHNTVLMAWPASWKQEDNPFSWKNFVDTVRDTTAAHQALLVAKNVDSFPQNQERFGGGHIDVWWIVHDGGMLMLLPFLLRQHKVWRKCRMRIFTVAQVDDNSIQMKKDLQMFLYHLRISAEVEVVEMVENDISAFTYERTLMMEQRSQMLKQMQLSKNEQEREAQLIHDRNTASHTAAAARTQAPPTPDKVQMTWTREKLIAEKYRSRDTSLSGFKDLFSMKPDQSNVRRMHTAVKLNGVVLNKSQDAQLVLLNMPGPPKNRQGDENYMEFLEVLTEGLNRVLLVRGGGREVITIYS
